This is an account of results in paper PMC6133373.

For assay [1], the target named is T1, CLCC1 p.D25E mutant (human) (UniProt Q96S66).
T1 sequence: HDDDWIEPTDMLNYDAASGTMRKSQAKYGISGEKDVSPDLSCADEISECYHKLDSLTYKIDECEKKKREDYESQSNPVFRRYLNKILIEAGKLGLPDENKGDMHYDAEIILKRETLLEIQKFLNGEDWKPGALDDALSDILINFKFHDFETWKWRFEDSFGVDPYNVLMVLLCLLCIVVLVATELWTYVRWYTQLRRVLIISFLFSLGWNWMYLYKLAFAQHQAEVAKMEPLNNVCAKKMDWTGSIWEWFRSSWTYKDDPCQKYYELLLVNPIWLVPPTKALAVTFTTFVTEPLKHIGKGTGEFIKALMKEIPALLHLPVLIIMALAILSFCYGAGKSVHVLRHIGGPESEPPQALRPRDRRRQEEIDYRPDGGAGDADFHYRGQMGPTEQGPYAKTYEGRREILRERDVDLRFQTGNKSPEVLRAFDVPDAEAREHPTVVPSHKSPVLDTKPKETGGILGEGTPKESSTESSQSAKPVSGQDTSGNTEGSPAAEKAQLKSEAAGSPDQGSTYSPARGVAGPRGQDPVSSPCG
As to the kind of experiment: co-IP; Dynabeads Protein G loaded with CLCC1 antibody (HPA013210), incubated 2 h at 4°C with total ARPE19 protein lysate (20 mM Tris-HCl, 150 mM KCl, 0.1% Triton); western blot for Calreticulin. Background: In western blotting, separated proteins are transferred to a membrane and probed.

Assay [2] addresses T2, CLCC1 (chloride channel CLIC-like 1), wild type (human) (UniProt Q96S66).
T2 sequence: T1 sequence with E7D
Described as above.

Changes are numbered by the printed parent chain. Results are given in words; binding and its absence hold for the method and conditions named. Binding seen in cells or lysates may run through a third protein. Some results given as binding are weak or reduced against the parent protein; the word gives no strength.

Turning to “Calreticulin (from UniProt P27797 18-417)”, the binding entry in assay [1] and in assay [2] was “binds” throughout.
